Data as given in patent publication US11440887B2, “Substituted 1,2,3,4-tetrahydroquinolines as inhibitors of repair enzyme 8-oxoguanine deoxyribonucleic acid glycosylase activity” (The Board of Trustees of the Leland Stanford Junior …, priority 2017, dated 2022).

Experiments:
Abasic DNA = experiment: Tm study with abasic DNA; type: binding; details: DNA 1 μM, 41 2 μM (1% DMSO), NEBuffer
OGR1 probe = experiment: Tm study with OGR1 probe; type: binding; details: DNA 1 μM, 41 2 μM (10% DMSO), PBS buffer and betaine (10 mM)

NC(=O)c1cccc(-c2ccc(S(=O)(=O)Nc3ccc4c(c3)N(C(=O)C3CC3)CCC4)cc2)c1 [Compound 41]
Tm(+) (Abasic DNA): 71.3 ± 0.29 °C
ΔTm (Abasic DNA): 0.0 °C
Tm(+) (OGR1 probe): 82.5 ± 0.25 °C
ΔTm (OGR1 probe): 0.3 °C
